Data published in patent US20230183233A1, “Bicyclic Pyridin-2-one and pyrimidin-4-one Derivatives Useful As a Factor XIa Inhibitors” (Janssen Pharmaceutica NV, priority 2021, published 2023).
The name of at least one read-out is uncertain.

Amino acid sequences for entries named in this document (tags omitted). Residues count along the entry.
UniProt P03951, 19-387 partner limits assumed: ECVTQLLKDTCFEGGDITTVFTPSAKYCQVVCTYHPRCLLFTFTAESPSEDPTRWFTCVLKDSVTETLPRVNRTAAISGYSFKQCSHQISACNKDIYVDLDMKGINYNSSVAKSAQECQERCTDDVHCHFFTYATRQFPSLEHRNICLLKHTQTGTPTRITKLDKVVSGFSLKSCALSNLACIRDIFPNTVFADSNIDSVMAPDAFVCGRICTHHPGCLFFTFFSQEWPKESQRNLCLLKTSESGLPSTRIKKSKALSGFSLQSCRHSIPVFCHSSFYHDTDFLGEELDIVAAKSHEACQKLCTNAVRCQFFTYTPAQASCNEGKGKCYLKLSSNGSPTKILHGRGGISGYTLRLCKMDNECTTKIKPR
UniProt P03951, 388-625 limits assumed: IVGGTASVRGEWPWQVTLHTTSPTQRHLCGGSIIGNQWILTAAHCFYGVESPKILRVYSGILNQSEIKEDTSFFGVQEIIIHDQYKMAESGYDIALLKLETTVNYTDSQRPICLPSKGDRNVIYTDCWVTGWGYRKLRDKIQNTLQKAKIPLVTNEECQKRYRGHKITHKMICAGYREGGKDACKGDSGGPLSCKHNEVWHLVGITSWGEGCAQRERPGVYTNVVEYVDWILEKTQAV

Molecular target: Factor XIa (Homo sapiens, UniProt P03951)
Experiment: Factor XIa inhibition assay utilizing a fluorophore-quencher pair peptide substrate (FLINT, kinetic read)
Format: biochemical
Conditions: peptide substrate cleaved by FXIa
From the text: Biological Example 1: Factor XIa Inhibition Assay Utilizing a Fluorophore-Quencher Pair Peptide Substrate A fluorescence intensity (FLINT) based assay was used to monitor inhibition of Factor XIa. The peptide substrate, 5Fam-[…]-K5Tamra (purchased from New England Peptide) was chosen based on the FXI sequence. Conversion of zymogen FXI to its activated form, FXIa, occurs by proteolytic cleavage by […] at two sites, Arg146 and Arg180. The custom peptide used in this assay was based on the Arg146 cleavage site of FXI. The peptide substrate was designed with a fluorophore-quencher pair, where the fluorescence is quenched until FXIa cleaves the 8-mer peptide after the Arg residue.
The 2× Factor XIa stock solution was prepared by diluting 6.562 μM stock in 1× assay buffer for a […].
Test compound(s) were run in an 11-point, 3-fold serial dilution with a final top compound concentration of 100 nM. Final DMSO in assay was 2%. […] The assay was run with kinetic (KIN) reads at 5 min intervals over 30 minutes. […]
Percent inhibition (IC50) curves were generated per compound tested, and data was analyzed using a 4-parameter logistic fit using GeneData Screener. The relative fluorescence unit (RFU) values were normalized to percent inhibition using the following equation: […]

5Fam-KLTRAETV-K5Tamra (N-terminal 5-FAM, C-terminal Lys-5-TAMRA) ["The peptide substrate ... designed with a fluorophore-quencher pair", "based on the Arg146 cleavage site of FXI", purchased from New England Peptide, reference compound]
kcat/KM (enzymatic efficiency): 69523 M⁻¹ s⁻¹
